# Measured values from PubChem BioAssay AID504467 (National Center for Advancing Translational Sciences (NCATS), 2011).
# Among all 330,000 compounds or so, about 7,700 (2.3%) were called active. Inconclusive results, whose numbers are uncertain, are shown with a selection of clear calls. The call rests on the fitted dose curve; in most records, active means well fitted inhibition curve with a large enough effect; inconclusive means small, poorly fitted or top-dose-only effect, or effect the other way; inactive means flat fitted curve, though single readings scatter. A potency beside an inconclusive call is a rough fit, not a confirmed value.
# Assay: qHTS screen for small molecules that inhibit ELG1-dependent DNA repair in human embryonic kidney (HEK293T) cells expressing luciferase-tagged ELG1; further: nearly all actives have a fitted effect of over 55% in size
# Settings: HEK293T ELG1-luciferase reporter, luminescence, 16 h, DNA damage induced by 5-fluorouridine; series mostly up to 46.1 µM
# Method in brief: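 Luminescence from the luciferase reporter, measured 30 min after ONE-Glo reagent at room temperature, was the read-out. Beforehand, 2,000 cells per well were exposed for 16 hr at 37 °C to 5-fluorouridine together with compound or vehicle.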
# Potency means the concentration at half of the fitted maximal effect.
row,SMILES,Potency
1,CCSc1nnc(NC(=O)CN2C(=O)N(C)C3(CCCCC3)C2=O)s1,inactive
2,CCN(C(=O)CSc1nc2ccc(Cl)cc2[nH]1)C1CCS(=O)(=O)C1 (centres undefined),"inconclusive: 0.651 µM [inhibitor, single point]"
3,COc1cccc(-c2csc(N3CCN(C(=S)Nc4ccc(Cl)cc4)CC3)n2)c1,"inconclusive: 16.4 µM [inhibitor, single point]"
4,COc1ccc(/C=N/n2cc(-c3ccccc3)nc2N)cc1,inactive
5,NC(=O)N/N=C1\CCS(=O)(=O)c2ccc(F)cc21,inactive
6,O=C(NCCSc1ccccc1)c1ccccc1,"inconclusive: 5.17 µM [activator, partial curve, poor fit]"
7,Cc1ccc(S(=O)(=O)N2CCC[C@H]2C(=O)NCc2ccccc2Cl)cc1,"inconclusive: 16.4 µM [inhibitor, partial curve, poor fit]"
8,Cn1c(=O)c(NCCc2ccccc2)c2c3c(cccc31)C(=O)c1ccccc1-2,active: 20.6 µM
9,C=CCNc1nnnc2c1sc1nc(N3CCOCC3)c3c(c12)CCCC3,"inconclusive: 7.3 µM [inhibitor, full curve, poor fit]"
10,CCOC(=O)c1c(C)oc2cc(Br)c(OC)cc12,"inconclusive: 14.6 µM [activator, partial curve, poor fit]"
11,Cc1cc(=O)oc2ccc(OCC(=O)N3CCC(C)CC3)cc12,"inconclusive: 8.2 µM [activator, partial curve, poor fit]"
12,COCc1cc(C)n(CC(=O)NC(C)c2ccccc2)c(=O)c1C#N (centres undefined),inactive
13,Cc1ccc(S(=O)(=O)NC2=C(N3CCN(Cc4ccccc4)CC3)C(=O)c3ccccc3C2=O)cc1,"inconclusive: 10.3 µM [activator, partial curve, poor fit]"
14,Cn1nnc2c[n+](CC(=O)c3ccc4ccccc4c3)cc(Br)c21,"inconclusive: 16.4 µM [inhibitor, partial curve, poor fit]"
15,COc1ccc(N(CC2CO2)S(=O)(=O)c2ccc(C)cc2)cc1 (centres undefined),"inconclusive: 23.1 µM [activator, single point]"
16,Cc1ccc(C)c(Cn2c(C(C)O)nc3ccccc32)c1 (centres undefined),inactive
17,CC1(C)CC(=O)C(=C2SCCCS2)C(=O)C1,inactive
18,COCCNC(=O)CC(=O)N/N=C/c1ccc(C(=O)OC)cc1,inactive
19,Cc1cc(C(=O)COC(=O)C2=COCCO2)c(C)n1-c1ccc2c(c1)OCO2,"inconclusive: 6.51 µM [activator, single point]"
20,Cc1csc(CN(C)C(=O)CC2C(=O)NCCN2Cc2ccc(F)c(F)c2)n1 (centres undefined),inactive
21,c1ccc2c(c1)NC1(CCCC1)n1c-2nc2ccccc21,"inconclusive: 20.6 µM [activator, single point]"
22,CCOC(=O)C1CCN(C(=O)C2CCN(S(=O)(=O)c3cc(Cl)ccc3Cl)CC2)CC1,"inconclusive: 14.6 µM [inhibitor, single point]"

# Reformatted: results already given.
row	SMILES	Potency
6	O=C(NCCSc1ccccc1)c1ccccc1	inconclusive: 5.17 µM [activator, partial curve, poor fit]
7	Cc1ccc(S(=O)(=O)N2CCC[C@H]2C(=O)NCc2ccccc2Cl)cc1	inconclusive: 16.4 µM [inhibitor, partial curve, poor fit]
8	Cn1c(=O)c(NCCc2ccccc2)c2c3c(cccc31)C(=O)c1ccccc1-2	active: 20.6 µM
9	C=CCNc1nnnc2c1sc1nc(N3CCOCC3)c3c(c12)CCCC3	inconclusive: 7.3 µM [inhibitor, full curve, poor fit]
10	CCOC(=O)c1c(C)oc2cc(Br)c(OC)cc12	inconclusive: 14.6 µM [activator, partial curve, poor fit]
11	Cc1cc(=O)oc2ccc(OCC(=O)N3CCC(C)CC3)cc12	inconclusive: 8.2 µM [activator, partial curve, poor fit]
12	COCc1cc(C)n(CC(=O)NC(C)c2ccccc2)c(=O)c1C#N (centres undefined)	inactive
13	Cc1ccc(S(=O)(=O)NC2=C(N3CCN(Cc4ccccc4)CC3)C(=O)c3ccccc3C2=O)cc1	inconclusive: 10.3 µM [activator, partial curve, poor fit]
14	Cn1nnc2c[n+](CC(=O)c3ccc4ccccc4c3)cc(Br)c21	inconclusive: 16.4 µM [inhibitor, partial curve, poor fit]
15	COc1ccc(N(CC2CO2)S(=O)(=O)c2ccc(C)cc2)cc1 (centres undefined)	inconclusive: 23.1 µM [activator, single point]
16	Cc1ccc(C)c(Cn2c(C(C)O)nc3ccccc32)c1 (centres undefined)	inactive

# (more compounds)

row,SMILES,Potency
1,S=C(Nc1ccccc1)Nc1ccc(Cl)cn1,"inconclusive: 29.1 µM [activator, single point]"
2,O=C(COC(=O)C1CC(=O)N(Cc2ccccc2)C1)Nc1ccccc1F (centres undefined),"inconclusive: 6.51 µM [activator, single point]"
3,O=C(c1ccc2nc(-c3ccccc3)c(-c3ccccc3)nc2c1)N1CCCCC1,"inconclusive: 29.1 µM [inhibitor, partial curve, poor fit]"
4,O=C(Nc1ccc(C(=O)N2CCOCC2)cc1)Nc1cccc(Cl)c1,inactive
5,O=C(Nc1ccon1)c1csc2c1CCCC2,inactive
6,O=C(CN1C(=O)/C(=C\c2ccccc2Br)Oc2ccccc21)NCCCN1CCOCC1,inactive
7,CCOC(=O)C1=C(CCc2ccccc2)NC(=O)NC1c1ccc(Br)cc1 (centres undefined),inactive
8,O=S(=O)(c1ccc(Cl)c(NC(=S)N/N=C/c2c(F)cccc2F)c1)N1CCOCC1,"inconclusive: 3.66 µM [inhibitor, partial curve, poor fit]"
9,C=C1C(=O)[C@@]23[C@H](O)C[C@@H]4C(C)(C)CC[C@H](O)[C@@]4(C)[C@@H]2CC[C@@H]1[C@H]3O,active: 6.51 µM
10,CCC(=O)/C(=C(/O)c1ccccc1)c1nc2ccccc2[nH]1,"inconclusive: 23.1 µM [activator, partial curve]"
11,CN(Cc1nc(-c2ccccc2)no1)C(=O)c1ccco1,"inconclusive: 32.6 µM [activator, partial curve, poor fit]"
12,O=C(NC(=O)N1CCN(C(c2ccccc2)c2ccccc2)CC1)c1ccccc1,"inconclusive: 11.6 µM [inhibitor, partial curve, poor fit]"
13,Cc1cc(C)n(C(=O)CNc2ccc(C)c(C)c2)n1,"inconclusive: 25.9 µM [activator, single point]"
14,CCOC(=O)N1CCN(C(=O)c2cccc(-n3c(=S)[nH]c4cc(Cl)ccc4c3=O)c2)CC1,"inconclusive: 29.1 µM [inhibitor, single point]"
15,COc1ccc(Cc2nc3ccccc3n2CC(=O)N/N=C/c2ccccc2)cc1OC,inactive
16,COc1ccc2nc(N3CCC(C)CC3)c(C#N)cc2c1,"inconclusive: 18.4 µM [activator, partial curve]"
17,COc1ccc(-c2cc(C(=O)OCC(=O)c3cccc([N+](=O)[O-])c3)c3cc(C)ccc3n2)cc1,inactive
18,O=C(Cn1cc(/C=N/NC(=O)c2cccc3ccccc23)c2ccccc21)Nc1ccc(F)cc1,"inconclusive: 7.3 µM [inhibitor, partial curve]"
19,CC(C)(C)n1nc2c(c1NC(=O)c1ccc(S(=O)(=O)N3CCCCC3)cc1)CS(=O)C2 (centres undefined),"inconclusive: 0.58 µM [inhibitor, partial curve, poor fit]"
20,O=C(Nc1ncccn1)c1ccc(Cl)c([N+](=O)[O-])c1,inactive
21,Cc1ccc(-c2nc(CS(=O)(=O)CC(=O)NC3CCCCCC3)c(C)o2)cc1,"inconclusive: 16.4 µM [inhibitor, partial curve]"
22,COc1ccc(OC)c(-c2c3cc(O)c(=O)cc-3oc3cc(O)c(O)cc23)c1,"inconclusive: 25.9 µM [inhibitor, partial curve]"
